Some of the results follow. These are further read-outs of the screen, such as a control signal, another cell line or another target. No call is given for them. Most of these compounds were active or inconclusive in the main read-out, so they are no random draw. The note in brackets gives the kind of curve behind each potency; many fits are weak.

The assay can be described thus: qHTS Assay for Modulators of Lamin A Splicing. The note with it: HeLa LMNA splicing GFP/RFP minigene ratio, 48 h. In short, it runs like this: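 S3 HeLa cells stably expressing lamin A-EGFP splicing minigene plus DsRed2, 600 cells/well, 48 h compound exposure at 37C. Laser-scanning cytometry; analysed as GFP (500-530 nm)/RFP (575-640 nm) total intensity ratio; 0.5% DMSO vehicle.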
A general note: In qHTS, concentration-response curves come from the screen itself.

Where [1] appears, read: measured here: RFP viability control channel.
[2] abbreviates: measured here: GFP splicing reporter channel.

As usually defined, the AC50 is the concentration at which the activity in the assay is half-maximal. In the case of `COC(=O)c1ccc(OCC(O)CN(CCO)CCO)cc1` (stereo unspecified), the AC50 under setting [1] is 0.00447 µM [falling, full curve, poor fit].

As for `CC1CCCC(C)N1C(=O)CSc1nc2ccccc2c(=O)[nH]1` (stereo unspecified), under setting [1], the AC50 was 0.00316 µM [falling, full curve, poor fit].

For `Cc1ccccc1OCCCCCn1ccnc1`, the AC50 under setting [1] is 10 µM [rising, partial curve].

Turning to `CCOC(=O)/C=C/C(=O)Nc1ccc(Oc2ccccc2)cc1`, the half-maximal activity concentration (AC50) runs as follows: under setting [2], 15.8 µM [falling, single point]; under setting [1], 15.8 µM [falling, single point].

For the compound `COc1ccc(OC)c2c(C)cc(NCCN3CCOCC3)nc12`, the AC50 under setting [2] is 10 µM [rising, partial curve] and the AC50 under setting [1] was 11.2 µM [rising, single point].

Regarding `COc1ccc(CC(=O)Nc2ccc(S(=O)(=O)NC(C)C)cc2)cc1`, the AC50 under setting [1] was 31.6 µM [rising, single point].

Consider `CCOc1ccc(CSC2=NCCN2)cc1[N+](=O)[O-]`, for which the half-maximal activity concentration (AC50) under setting [2] is 28.2 µM [rising, single point] and the half-maximal activity concentration (AC50) under setting [1] was 35.5 µM [rising, single point].

`Cc1nn(-c2ccccc2)c(C)c1/C=N/NC(=O)c1cc(C23CC4CC(CC(C4)C2)C3)[nH]n1`: the AC50 under setting [1] is 12.6 µM [rising, partial curve].

Take `O=C(NNc1ccc([N+](=O)[O-])cc1[N+](=O)[O-])C1C2CCCCC21` (stereo unspecified): the half-maximal activity concentration (AC50) runs as follows: under setting [2], 7.08 µM [rising, full curve, poor fit]; under setting [1], 7.94 µM [rising, partial curve].

For the compound `CC1(C)C2CCC1(CS(=O)(=O)NC1CCCC1)C(=O)C2` (stereo unspecified), the concentration at half-maximal activity (AC50) under setting [2] was 5.01 µM [rising, full curve, poor fit].

Turning to `Cc1cc(C(=O)CNCc2ccco2)c(C)n1-c1ccc(F)cc1`, the AC50 by setting is: under setting [2], 31.6 µM [rising, single point]; under setting [1], 22.4 µM [rising, single point].

For `O=C(CSc1ccc(-c2ccc(Cl)cc2)nn1)N1CCCc2ccccc21`, the AC50 under setting [1] is 35.5 µM [rising, single point].

Consider `CCc1cc2c(nc1CC)CCN(CC/C(C)=N/OC[C@H]1O[C@H](c3ccccc3)C=C[C@@H]1Oc1ccc(OC)cc1)C2`, for which the AC50 is 11.2 µM [rising, partial curve, poor fit] under setting [2] and 20 µM [rising, partial curve] under setting [1].

In the case of `O=C(NCCCN1CCOCC1)c1cccc(S(=O)(=O)Nc2cc(Cl)ccc2Cl)c1`, the concentration at half-maximal activity (AC50) under setting [2] was 0.178 µM [falling, full curve, poor fit].

Regarding `O=C(Nc1nc(-c2cccs2)cs1)c1ccc(S(=O)(=O)N2CCCCC2)cc1`, the half-maximal activity concentration (AC50) under setting [1] is 3.98 µM [rising, full curve, poor fit].

Take `CN(c1ccccc1)S(=O)(=O)c1cccc(C(=O)OCC(=O)NCCCN2CCCC2=O)c1`: the AC50 by setting is: under setting [2], 0.00316 µM [rising, full curve, poor fit]; under setting [1], 0.0891 µM [rising, partial curve].

For `Cc1cc(/C=C2/NC(=O)N(Cc3ccccc3F)C2=O)c(C)n1-c1ccccn1`, the concentration at half-maximal activity (AC50) under setting [2] was 14.1 µM [rising, single point] and the AC50 under setting [1] is 12.6 µM [rising, partial curve, poor fit].

For the compound `COC(=O)C1=C(C(=O)OC)[C@@H]2Nc3ccccc3[C@@]23C[C@@H](C(=O)OC)N(C(=O)c2ccc(Br)cc2)C3=N1`, the AC50 under setting [2] was 0.355 µM [falling, partial curve, poor fit].

Consider `Cc1ccc(S(=O)(=O)/N=C(/Nc2ccc3[nH]c(=O)[nH]c3c2)c2ccc(F)cc2)cc1`, for which the half-maximal activity concentration (AC50) under setting [2] is 0.0178 µM [rising, full curve].

Consider `O=C(CNC(=O)C12CC3CC(CC(C3)C1)C2)N1CCN(S(=O)(=O)/C=C/c2ccccc2)CC1`, for which the AC50 under setting [1] was 12.6 µM [rising, partial curve].

In the case of `Cc1cc(C)c(OCCNC(=O)c2ccccc2Sc2ccccc2C#N)c(C)c1`, under setting [1], the AC50 is 22.4 µM [rising, partial curve].

`Cc1cc(C)c2[nH]c(=O)c(CN(Cc3ccco3)C(=S)NCC3CCCO3)cc2c1` (stereo unspecified): the AC50 is 31.6 µM [rising, single point] under setting [2] and 22.4 µM [rising, single point] under setting [1].

Regarding `CSc1ccccc1NC(=O)c1cc(-c2cccnc2)nc2ccc(Br)cc12`, the half-maximal activity concentration (AC50) under setting [2] was 8.91 µM [falling, single point].

For the compound `COc1ccc(-c2nnc(SCC(=O)NCc3ccc(C)cc3)nc2-c2ccc(OC)c(OC)c2)cc1OC`, the concentration at half-maximal activity (AC50) under setting [1] was 11.2 µM [rising, partial curve].

With `COc1ccc(C(=O)NC(NC(=O)c2ccc(OC)c(OC)c2)c2ccccc2F)cc1OC`, the AC50 under setting [2] was 3.55 µM [falling, partial curve, poor fit] and the AC50 under setting [1] is 2 µM [falling, partial curve, poor fit].

As to `CC(C)COC(=O)NCCOC(=O)Nc1cccc(Cl)c1`, under setting [1], the half-maximal activity concentration (AC50) was 11.2 µM [rising, partial curve].

`O=C(CSc1n[nH]c(-c2ccccc2Cl)n1)N1CCN(c2ccccc2)CC1`: the concentration at half-maximal activity (AC50) under setting [1] is 0.0251 µM [falling, full curve].

Regarding `Cc1ccc(-c2noc(CCC(=O)N3CCN(c4cccc(C(F)(F)F)c4)CC3)n2)cc1`, under setting [1], the concentration at half-maximal activity (AC50) is 25.1 µM [rising, single point].

On to `CCOc1cc(/C=N/n2c(C)nc3sc(C)c(C)c3c2=O)ccc1O`, for which the AC50 under setting [2] was 35.5 µM [rising, single point].

In the case of `C/C(CC(=O)Nc1ccccn1)=N\NC(=O)C(=O)Nc1ccccc1C`, the concentration at half-maximal activity (AC50) under setting [1] was 0.178 µM [falling, full curve, poor fit].

`COc1ccccc1C(=O)Nc1nc(-c2ccc(S(=O)(=O)N3CCOCC3)cc2)cs1`: the AC50 is 10 µM [rising, partial curve] under setting [2] and 12.6 µM [rising, partial curve] under setting [1].

For the compound `Cc1ccc(OCc2nnc(SCC(=O)c3ccccc3)n2-c2ccccc2)cc1`, under setting [1], the AC50 is 10 µM [rising, partial curve].

For `CCCOc1cccc(NC(=O)c2cc(C)oc2C)c1`, the AC50 under setting [1] is 35.5 µM [rising, single point].

Take `CC1CC(=O)N(c2ccc(NCc3ccccc3Cl)c([N+](=O)[O-])c2)C1=O` (stereo unspecified): under setting [1], the AC50 is 31.6 µM [rising, single point].

Regarding `CCN(C(=O)CCCC(=O)N(CC)c1ccccc1)c1ccccc1`, the AC50 under setting [2] is 12.6 µM [rising, single point].
